Measured values as given in paper PMC5316414.
No constants are given. Whether binding was seen depends on the method and setting. Binding seen in cells or lysates may run through a third protein. Some results given as binding are weak or reduced against the parent protein; the word gives no strength. For some assays here: Tags and fused reporters may be left off the sequences shown.

Chains of the proteins cited; added tags and fusions are not shown. Lines headed by an entry give the natural chain unless they say otherwise; changes in a name come on top.
UniProt P53538: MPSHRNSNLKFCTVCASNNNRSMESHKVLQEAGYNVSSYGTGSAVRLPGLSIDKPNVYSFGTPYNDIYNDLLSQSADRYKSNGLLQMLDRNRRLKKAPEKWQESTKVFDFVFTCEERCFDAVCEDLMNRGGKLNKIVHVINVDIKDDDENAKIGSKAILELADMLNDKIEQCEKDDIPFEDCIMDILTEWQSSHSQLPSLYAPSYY
UniProt P39081: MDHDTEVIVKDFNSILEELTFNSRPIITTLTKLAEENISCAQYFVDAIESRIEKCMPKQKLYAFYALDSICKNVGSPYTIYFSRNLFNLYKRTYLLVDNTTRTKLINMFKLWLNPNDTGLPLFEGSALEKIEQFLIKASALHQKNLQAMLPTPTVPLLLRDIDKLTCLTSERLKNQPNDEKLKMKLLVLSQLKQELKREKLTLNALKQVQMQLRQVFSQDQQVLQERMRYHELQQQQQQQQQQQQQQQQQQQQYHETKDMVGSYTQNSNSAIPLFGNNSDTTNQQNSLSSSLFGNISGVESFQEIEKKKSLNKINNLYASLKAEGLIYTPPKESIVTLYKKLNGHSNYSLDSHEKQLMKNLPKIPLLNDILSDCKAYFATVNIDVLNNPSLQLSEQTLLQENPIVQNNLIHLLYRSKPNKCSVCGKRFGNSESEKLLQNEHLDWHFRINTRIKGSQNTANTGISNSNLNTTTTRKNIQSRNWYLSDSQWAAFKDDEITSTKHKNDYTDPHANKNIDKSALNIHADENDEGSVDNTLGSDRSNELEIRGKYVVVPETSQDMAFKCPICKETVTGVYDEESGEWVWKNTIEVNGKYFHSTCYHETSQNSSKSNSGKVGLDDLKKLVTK
UniProt P04050: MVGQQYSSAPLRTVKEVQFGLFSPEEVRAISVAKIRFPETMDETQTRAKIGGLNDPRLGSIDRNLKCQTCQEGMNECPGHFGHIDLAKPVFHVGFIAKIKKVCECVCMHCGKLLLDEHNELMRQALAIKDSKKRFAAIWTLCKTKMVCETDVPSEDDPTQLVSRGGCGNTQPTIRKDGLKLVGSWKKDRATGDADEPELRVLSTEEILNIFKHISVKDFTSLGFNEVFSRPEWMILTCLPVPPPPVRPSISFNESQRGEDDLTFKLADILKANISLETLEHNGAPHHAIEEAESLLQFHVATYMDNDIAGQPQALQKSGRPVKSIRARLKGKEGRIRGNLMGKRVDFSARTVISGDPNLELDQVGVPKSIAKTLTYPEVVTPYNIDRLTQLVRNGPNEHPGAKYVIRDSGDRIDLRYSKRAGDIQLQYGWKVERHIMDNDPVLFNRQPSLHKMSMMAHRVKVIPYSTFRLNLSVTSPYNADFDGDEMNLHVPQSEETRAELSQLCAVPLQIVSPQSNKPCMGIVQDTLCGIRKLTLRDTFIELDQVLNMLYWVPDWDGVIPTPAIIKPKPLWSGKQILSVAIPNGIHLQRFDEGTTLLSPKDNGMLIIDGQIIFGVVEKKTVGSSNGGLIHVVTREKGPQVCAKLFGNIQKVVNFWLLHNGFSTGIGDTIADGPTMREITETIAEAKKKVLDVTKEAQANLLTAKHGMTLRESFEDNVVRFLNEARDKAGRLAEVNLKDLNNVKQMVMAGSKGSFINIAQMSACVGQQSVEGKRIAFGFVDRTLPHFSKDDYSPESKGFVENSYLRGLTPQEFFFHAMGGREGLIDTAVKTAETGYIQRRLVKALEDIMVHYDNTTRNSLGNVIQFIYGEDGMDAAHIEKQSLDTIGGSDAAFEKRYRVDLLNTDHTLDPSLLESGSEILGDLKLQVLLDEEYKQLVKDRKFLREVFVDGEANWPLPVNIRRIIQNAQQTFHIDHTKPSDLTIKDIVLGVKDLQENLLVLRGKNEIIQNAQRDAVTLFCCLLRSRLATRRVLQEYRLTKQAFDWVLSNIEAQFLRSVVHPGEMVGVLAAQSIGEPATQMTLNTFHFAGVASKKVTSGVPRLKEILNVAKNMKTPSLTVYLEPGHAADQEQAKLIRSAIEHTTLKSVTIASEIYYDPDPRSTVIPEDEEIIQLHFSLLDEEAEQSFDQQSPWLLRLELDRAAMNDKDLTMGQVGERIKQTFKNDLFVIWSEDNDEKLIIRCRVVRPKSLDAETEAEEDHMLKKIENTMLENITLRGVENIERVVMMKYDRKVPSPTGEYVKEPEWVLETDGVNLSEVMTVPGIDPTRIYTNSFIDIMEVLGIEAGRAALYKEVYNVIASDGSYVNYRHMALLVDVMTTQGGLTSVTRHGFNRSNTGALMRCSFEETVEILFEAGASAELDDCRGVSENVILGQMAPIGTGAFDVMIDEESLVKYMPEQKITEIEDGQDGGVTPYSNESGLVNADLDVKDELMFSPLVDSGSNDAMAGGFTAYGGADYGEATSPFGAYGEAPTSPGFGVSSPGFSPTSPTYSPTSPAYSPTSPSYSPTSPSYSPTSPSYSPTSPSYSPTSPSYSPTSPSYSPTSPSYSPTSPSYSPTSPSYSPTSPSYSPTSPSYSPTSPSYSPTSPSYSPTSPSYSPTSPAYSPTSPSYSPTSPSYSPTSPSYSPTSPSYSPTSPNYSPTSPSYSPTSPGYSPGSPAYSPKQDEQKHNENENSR

Tests used:
Assay in all cases: co-IP; single IP (TEF-seq): anti-FLAG M2 agarose beads, 4°C, 2.5 h, from cryogenically lysed, DNase I-treated yeast extract in 20 mM HEPES pH 7.4, 110 mM KOAc, 0.5% Triton X-100, 0.1% Tween 20, 10 mM MnCl2; eluted with 3xFLAG peptide; co-precipitated Pol2 read by sequencing its nascent RNA, no-tag control subtracted; samples also analysed by western blot; cells in glucose, for Paf1 also 5, 15 or 60 min in galactose
[1] = target: T1, FLAG-tagged Paf1 (RNA polymerase II-associated factor 1) (S. cerevisiae) (UniProt P38351)
T1 sequence: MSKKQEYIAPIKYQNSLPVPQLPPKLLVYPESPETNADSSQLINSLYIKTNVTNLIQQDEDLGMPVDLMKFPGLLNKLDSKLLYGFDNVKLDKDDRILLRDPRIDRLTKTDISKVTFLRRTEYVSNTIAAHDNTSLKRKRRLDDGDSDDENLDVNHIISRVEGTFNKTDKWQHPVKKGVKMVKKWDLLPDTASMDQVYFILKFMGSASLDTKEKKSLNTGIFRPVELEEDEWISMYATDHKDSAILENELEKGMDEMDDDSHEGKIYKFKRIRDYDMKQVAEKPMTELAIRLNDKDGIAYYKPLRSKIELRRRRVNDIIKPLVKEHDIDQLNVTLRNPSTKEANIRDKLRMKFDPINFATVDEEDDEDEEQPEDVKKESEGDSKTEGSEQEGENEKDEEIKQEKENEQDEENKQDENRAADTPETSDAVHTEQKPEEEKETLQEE

[2] = target: FLAG-tagged Ssu72 (S. cerevisiae) (UniProt P53538)
[3] = target: T2, FLAG-tagged Cet1 (S. cerevisiae) (UniProt O13297)
T2 sequence: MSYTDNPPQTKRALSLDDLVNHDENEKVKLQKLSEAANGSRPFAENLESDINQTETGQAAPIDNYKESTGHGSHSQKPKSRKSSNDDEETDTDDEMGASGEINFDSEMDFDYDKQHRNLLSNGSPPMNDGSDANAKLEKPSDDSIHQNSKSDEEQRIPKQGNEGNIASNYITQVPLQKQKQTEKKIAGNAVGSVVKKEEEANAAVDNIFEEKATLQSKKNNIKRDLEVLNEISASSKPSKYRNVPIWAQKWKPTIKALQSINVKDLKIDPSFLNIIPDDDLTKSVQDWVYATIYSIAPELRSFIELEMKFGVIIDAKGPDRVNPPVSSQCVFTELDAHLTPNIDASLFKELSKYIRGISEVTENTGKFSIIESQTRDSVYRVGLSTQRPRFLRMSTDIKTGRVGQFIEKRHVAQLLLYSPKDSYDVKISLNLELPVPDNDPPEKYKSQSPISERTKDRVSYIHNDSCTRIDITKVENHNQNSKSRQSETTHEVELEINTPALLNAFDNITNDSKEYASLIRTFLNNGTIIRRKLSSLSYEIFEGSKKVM

[4] = target: T3, FLAG-tagged Set2 (S. cerevisiae) (UniProt P46995)
T3 sequence: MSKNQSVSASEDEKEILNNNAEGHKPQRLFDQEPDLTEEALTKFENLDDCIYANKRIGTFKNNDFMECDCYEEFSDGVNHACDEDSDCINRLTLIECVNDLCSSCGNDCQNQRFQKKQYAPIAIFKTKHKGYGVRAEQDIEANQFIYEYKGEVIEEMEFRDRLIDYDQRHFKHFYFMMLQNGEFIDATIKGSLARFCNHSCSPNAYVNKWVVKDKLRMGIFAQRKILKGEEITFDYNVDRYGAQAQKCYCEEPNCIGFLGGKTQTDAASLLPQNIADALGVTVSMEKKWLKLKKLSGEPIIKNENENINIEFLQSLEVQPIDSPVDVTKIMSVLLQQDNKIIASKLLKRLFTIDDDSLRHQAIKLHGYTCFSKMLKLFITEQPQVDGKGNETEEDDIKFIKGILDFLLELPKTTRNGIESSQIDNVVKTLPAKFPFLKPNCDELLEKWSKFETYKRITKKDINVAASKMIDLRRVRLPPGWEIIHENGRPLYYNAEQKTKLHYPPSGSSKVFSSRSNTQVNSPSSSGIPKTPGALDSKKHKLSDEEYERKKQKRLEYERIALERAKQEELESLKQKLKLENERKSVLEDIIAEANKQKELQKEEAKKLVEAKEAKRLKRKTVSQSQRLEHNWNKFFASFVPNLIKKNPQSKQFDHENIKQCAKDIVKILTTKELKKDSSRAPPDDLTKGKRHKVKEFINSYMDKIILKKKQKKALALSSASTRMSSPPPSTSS

[5] = target: FLAG-tagged Pcf11 (S. cerevisiae) (UniProt P39081)

Measured: binding

RNA polymerase II (Pol2), endogenous, untagged (from UniProt P04050 1-1733; P08518 1-1224; P16370 1-318; P20433 1-221; P20434 1-215; P20435 1-155; P34087 1-171; P20436 1-146; P27999 1-122; P22139 1-70; P38902 1-120; P40422 1-70) (complex)
binds: all assays above
